Literature values in US6268381A, “Taxane derivatives” (Kabushiki Kaisha Yakult Honsha, priority 1997, dated 2001).

Conditions: background; cited from earlier work

## CC(=O)O[C@H]1C(=O)[C@@]2(C)[C@H]([C@H](OC(=O)c3ccccc3)[C@]3(O)C[C@H](OC(=O)[C@H](O)[C@@H](NC(=O)c4ccccc4)c4ccccc4)C(C)=C1C3(C)C)[C@]1(OC(C)=O)CO[C@@H]1C[C@@H]2O [Taxol]
  Solubility in water (in words): sparingly soluble in water
